Article doi:10.1101/2024.12.24.629987
No constants are given. Whether binding was seen depends on the method and setting. For some of these results: Binding seen in cells or lysates may run through a third protein. For some of these results: Binding calls can cover weak binding; strength is not graded here. For some of these results: Sequences can lack the tags named with a protein.

Key:
[1] = biological target: GFP-SJP39 (mature SJP39, GFP-SJP39^32-114) (jujube Witches' Broom (JWB) phytoplasma (Candidatus Phytoplasma ziziphi)); assay: co-IP
[2] = biological target: SJP39^32-77 in pDEST32 (yeast two-hybrid bait) (jujube Witches' Broom (JWB) phytoplasma (Candidatus Phytoplasma ziziphi)); assay: two-hybrid
[3] = biological target: GST-SJP39^32-77 (jujube Witches' Broom (JWB) phytoplasma (Candidatus Phytoplasma ziziphi)); assay: pull-down
[4] = biological target: GST-SJP39^78-114 (jujube Witches' Broom (JWB) phytoplasma (Candidatus Phytoplasma ziziphi)); assay: pull-down

B1: AtbHLH87-Myc (protein, UniProt Q8S3D2 1-373)
chain: MEGLESVYAQAMYGMTRESKIMEHQGSDLIWGGNELMARELCSSSSYHHQLINPNLSSCFMSDLGVLGEIQQQQHVGNRASSIDPSSLDCLLSATSNSNNTSTEDDEGISVLFSDCQTLWSFGGVSSAESENREITTETTTTIKPKPLKRNRGGDGGTTETTTTTTKPKSLKRNRGDETGSHFSLVHPQDDSEKGGFKLIYDENQSKSKKPRTEKERGGSSNISFQHSTCLSDNVEPDAEAIAQMKEMIYRAAAFRPVNFGLEIVEKPKRKNVKISTDPQTVAARQRRERISEKIRVLQTLVPGGTKMDTASMLDEAANYLKFLRAQVKALENLRPKLDQTNLSFSSAPTSFPLFHPSFLPLQNPNQIHHPEC
[1]
  binding: binds

B2: AtbHLH87 in pDEST22 (yeast two-hybrid prey) (protein, UniProt Q8S3D2 1-373)
chain: B1 chain
[2]
  binding: no binding

B3: His-AtbHLH87 (protein, UniProt Q8S3D2 1-373)
chain: B1 chain
[3]
  binding: no binding
[4]
  binding: no binding
